Test system: α-adaptin appendage domain (residues 711 to 955)
Assay: ITC of Eps15 fragments with the α-adaptin appendage domain
Assay type: binding, human
Conditions: single-site model, ± 68.3% confidence interval

Row | Molecule | N (binding ratio of Eps15 fragment to α-adaptin appendage domain)
1 | Eps15-661–720: Eps15 fragment spanning residues 661 to 720, 4 DPF motifs (QSTDPFATSSTDPFSAANNSSITSVETLKHNDPFAPGGTVVAASDSATDPFASVFGNESF; UniProt P42566 661-720, looked up, fragment) | 0.47 ± 0.04
2 | Eps15-661–790 (domain or fragment, human, UniProt P42566-1 661-790, looked up, Eps15, human, residues 661-790 (limits from the fragment's name); source: E. coli, purified in the same manner as for the SGIP1 μHD) QSTDPFATSSTDPFSAANNSSITSVETLKHNDPFAPGGTVVAASDSATDPFASVFGNESFGGGFADFSTLSKVNNEDPFRSATSSSVSNVVITKNVFEETSVKSEDEPPALPPKIGTPTRPCPLPPGKRS | 1.19 ± 0.01

— article PMC4731787, “Structural basis for the recognition of two consecutive mutually interacting DPF motifs by the SGIP1 μ homology domain” (Scientific Reports, 2016)
